Values of other authors in patent publication US10155767B2, “Therapeutic agent of acute myeloid leukemia containing 1,3,7-trisubstituted 3,4-dihydropyrimido[4,5-D]pyrimidine-2(1H)-one derivatives” (KOREA INSTITUTE OF SCIENCE AND TECHNOLOGY, priority 2016, dated 2018).
For at least one compound, name, drawing or mass did not settle the structure.

Test system: AML patients with the NRAS mutant gene
Details: three AML patients with the NRAS mutant gene, clinical 2 phase; cited from earlier work

For `Cn1cnc2c(F)c(Nc3ccc(Br)cc3Cl)c(C(=O)NOCCO)cc21` [selumetinib], the treatment effect is listed as “does not have a treatment effect”.
